Experimental data taken from PubChem BioAssay AID330 (DTP/NCI, 2004).
The list does not hold the whole screen: it gathers tests that were run many times, whatever their T/C, doses with no T/C, and many T/C values between a quarter and a half above the control. Other doses and runs of a compound stand elsewhere. T/C: endpoint of the treated group in % of that of the vehicle group. Some entries give survivors of the animals treated and no T/C: the source files T/C as zero there, which appears to mark a toxic dose or a test without result, not a measured value. Some doses without a T/C left all or most animals alive at the check, yet need not have been tolerated: survival well below the control is almost never listed, so the zero probably covers shortened survival too. Survivors were counted at the toxicity check, usually on the fifth day, unless a day is given; later deaths do not show. Schedule codes are those of the source, read here as Q, the interval in days (D) or hours (H), X, the number of doses. For survival time, the PubChem record calls one and a half times the control and up active, and a quarter to a half above the control has no call in these data; cut-offs in other NCI protocols can differ. Some entries were tested several times; the values are given in rising order. Some T/C values are followed by the survivors on the day toxicity was checked, most often the fifth; where none is given, no animal had died by that day.

Tested on: P388 leukemia ip, CD2F1 mice, survival T/C
Experiment: NCI In Vivo Anticancer Drug Screen. Data for tumor model P388 Leukemia (intraperitoneal) in CD2F1 (CDF1) mice
Conditions: T/C endpoint: median survival time, higher T/C = longer survival
[1] = dose: 200.0 mg/kg/injection, schedule: Q01DX009 (ip), vehicle: Klucel (hydroxypropylcellulose) (HPC)
[2] = dose: 400.0 mg/kg/injection, schedule: Q04DX003 (ip), vehicle: saline
[3] = dose: 100.0 mg/kg/injection, schedule: Q01DX009 (ip), vehicle: Klucel (hydroxypropylcellulose) (HPC)
[4] = dose: 50.0 mg/kg/injection, schedule: Q01DX005 (ip), vehicle: saline with Tween-80
[5] = dose: 100.0 mg/kg/injection, schedule: Q01DX005 (ip), vehicle: saline with Tween-80
[6] = dose: 200.0 mg/kg/injection, schedule: Q01DX005 (ip), vehicle: saline with Tween-80
[7] = dose: 200.0 mg/kg/injection, schedule: Q01DX009 (ip), vehicle: other
[8] = dose: 100.0 mg/kg/injection, schedule: Q01DX009 (ip), vehicle: saline
[9] = dose: 200.0 mg/kg/injection, schedule: Q01DX009 (ip), vehicle: saline
[10] = dose: 100.0 mg/kg/injection, schedule: Q01DX009 (ip), vehicle: distilled water + Tween-80

For `COc1cc2c(cc1[N+](=O)[O-])C(=O)C(Br)(Br)CCC2`, the survivor count [1] was 2 of 6.

With `O=[N+]([O-])c1ccc([Se]c2ncccn2)c([N+](=O)[O-])c1` the survivor count [2] was 4 of 6.

`CCN(CC)CCN1C(=O)c2cccc3cc(OC)cc(c23)C1=O` was tested, and the T/C (dose: 200.0 mg/kg/injection, schedule: Q01DX005 (ip), vehicle: saline) was 138 and 146 % of control.

In the case of `CC(C)(C)OOC(=O)c1ccccc1O`, the survivor count (dose: 400.0 mg/kg/injection, schedule: Q04DX003 (ip), vehicle: saline sonified) is reported as 3 of 6.

For `CCOC(=O)/C(=C\Nc1cccc(OCc2ccccc2)c1)NC(=O)c1ccccc1`, the survivor count [3] was 6 of 6 and the survivor count (dose: 400.0 mg/kg/injection, schedule: Q01DX009 (ip), vehicle: Klucel (hydroxypropylcellulose) (HPC)) was 3 of 6.

`O=C1C2C3C=CC(C2C(=O)N1Cc1ccccc1)C1C2C(=O)N(Cc4ccccc4)C(=O)C2C31` (stereo unspecified) was tested, and the survivor count (dose: 50.0 mg/kg/injection, schedule: Q01DX001 (ip), vehicle: saline with Tween-80) was 6 of 6, the survivor count (dose: 100.0 mg/kg/injection, schedule: Q01DX001 (ip), vehicle: saline with Tween-80) was 6 of 6 and the survivor count (dose: 200.0 mg/kg/injection, schedule: Q01DX001 (ip), vehicle: saline with Tween-80) was 6 of 6. The survivor count (dose: 400.0 mg/kg/injection, schedule: Q01DX001 (ip), vehicle: saline with Tween-80) was 6 of 6.

`CN(C)Cc1cc(C(=O)c2ccccc2)c(O)cc1O` was tested, and the survivor count [3] was 6 of 6 and the survivor count [1] was 0 of 6.

In the case of `CN(C)c1ccc(C(=C(c2ccc(N(C)C)cc2)c2ccc(N(C)C)cc2)c2ccc(N(C)C)cc2)cc1`, the survivor count [4] is reported as 1 of 6, the survivor count [5] is reported as 0 of 6 and the survivor count [6] is reported as 0 of 6.

`CCOC(=O)N(NC(=O)c1ccc(N(CCCl)CCCl)cc1)C(C)=O` was tested, and the T/C (dose: 100.0 mg/kg/injection, schedule: Q01DX009 (ip), vehicle: other) was 126 % of control, the T/C [7] was 129 % of control [5 of 6 alive] and the survivor count [7] was 0 of 6. The survivor count (dose: 300.0 mg/kg/injection, schedule: Q01DX009 (ip), vehicle: other) was 0 of 6 and the survivor count (dose: 400.0 mg/kg/injection, schedule: Q01DX009 (ip), vehicle: other) was 0 of 6.

With `CCCCCCCCCC[N+]1([O-])CCCCC1` the survivor count [8] was 4 of 6 and the survivor count [9] was 0 of 6.

For `CC(C)(C)C1CCC=CC(=O)C1` (stereo unspecified), the survivor count (dose: 400.0 mg/kg/injection, schedule: Q04DX003 (ip), vehicle: Klucel (hydroxypropylcellulose) (HPC)) was 2 of 6.

In the case of `Cc1cccnc1N`, the survivor count (dose: 50.0 mg/kg/injection, schedule: Q01DX009 (ip), vehicle: saline) is reported as 0 of 6, the survivor count [8] is reported as 0 of 6 and the survivor count [9] is reported as 0 of 6.

For `[BH]n1cccn1.[CH3][Sn]([CH3])[N]=C=S`, the survivor count [2] was 2 of 6.

In the case of `C/C(=N\NC(=O)c1ccncc1)c1cccc(/C(C)=N/NC(=O)c2ccncc2)n1.O=S(=O)([O-])[O-].[Fe+2]`, the survivor count [5] is reported as 6 of 6 and the survivor count [6] is reported as 2 of 6.

With `CC1=C(/C=C/C(C)=C/C=C/C(C)=C/C(=O)Nc2ccc(O)cc2)C(C)(C)CCC1` the survivor count [5] was 6 of 6 and the survivor count [6] was 6 of 6.

For `COc1ccc2c(c1)C(Cc1ccc(Oc3cc(CC4c5cc(OC)ccc5CC[N+]4(C)C)ccc3OC)cc1)[N+](C)(C)CC2` (stereo unspecified), the survivor count (dose: 6.25 mg/kg/injection, schedule: Q04DX003 (ip), vehicle: saline with Tween-80) was 0 of 6, the survivor count (dose: 6.25 mg/kg/injection, schedule: Q04DX003 (ip), vehicle: water) was 3 of 6 and the survivor count (dose: 12.5 mg/kg/injection, schedule: Q04DX003 (ip), vehicle: saline with Tween-80) was 0 of 6. The survivor count (dose: 25.0 mg/kg/injection, schedule: Q04DX003 (ip), vehicle: saline with Tween-80) was 0 of 6, the survivor count (dose: 50.0 mg/kg/injection, schedule: Q04DX003 (ip), vehicle: saline with Tween-80) was 0 of 6 and the survivor count (dose: 100.0 mg/kg/injection, schedule: Q04DX003 (ip), vehicle: saline with Tween-80) was 0 of 6. For the same molecule, the survivor count (dose: 200.0 mg/kg/injection, schedule: Q04DX003 (ip), vehicle: saline with Tween-80) was 0 of 6 and the survivor count (dose: 400.0 mg/kg/injection, schedule: Q04DX003 (ip), vehicle: saline with Tween-80) was 0 of 6.

For `CC(=O)Nc1nnc(-c2coc3ccc(C)cc3c2=O)s1`, the survivor count (dose: 25.0 mg/kg/injection, schedule: Q01DX005 (ip), vehicle: saline with Tween-80) was 6 of 6, the survivor count [4] was 6 of 6 and the survivor count [5] was 6 of 6. For the same molecule, the survivor count [6] was 6 of 6.

With `CCC1(O)CC(OC2CC(N(C)C)C(OC3CC(O)C(OC4CC(O)C(O)C(C)O4)C(C)O3)C(C)O2)c2c(cc3c(c2O)C(=O)c2c(O)ccc(O)c2C3=O)C1C(=O)OC` (stereo unspecified) the T/C (dose: 50.0 mg/kg/injection, schedule: Q04DX003 (ip), vehicle: Klucel (hydroxypropylcellulose) (HPC)) was 134 % of control.

In the case of `CN(Cc1cnc2nc(N)nc(N)c2n1)c1ccc(C(=O)NC(CCC(=O)OC(C)(C)C)C(=O)O)cc1` (stereo unspecified), the T/C (dose: 40.0 mg/kg/injection, schedule: Q04DX003 (ip), vehicle: sodium bicarbonate) is reported as 127 % of control, the T/C (dose: 80.0 mg/kg/injection, schedule: Q04DX003 (ip), vehicle: sodium bicarbonate) is reported as 128 % of control and the T/C (dose: 160.0 mg/kg/injection, schedule: Q04DX003 (ip), vehicle: sodium bicarbonate) is reported as 137 % of control. For the same molecule, the T/C (dose: 320.0 mg/kg/injection, schedule: Q04DX003 (ip), vehicle: sodium bicarbonate) was 144 % of control.

With `CN=C(N)N/N=C(\C)c1ccc2ccc3ccccc3c2c1` the survivor count (dose: 100.0 mg/kg/injection, schedule: Q04DX002 (ip), vehicle: saline with Tween-80) was 3 of 6 and the survivor count (dose: 200.0 mg/kg/injection, schedule: Q04DX002 (ip), vehicle: saline with Tween-80) was 0 of 6.

With `CB1NN=C(C)c2ccsc21` the survivor count (dose: 100.0 mg/kg/injection, schedule: Q01DX009 (ip), vehicle: saline with Tween-80) was 6 of 6 and the survivor count (dose: 200.0 mg/kg/injection, schedule: Q01DX009 (ip), vehicle: saline with Tween-80) was 3 of 6.

In the case of `CNC(=O)OCc1c(COC(=O)NC)c(-c2ccc(N)cc2)n(C)c1C`, the T/C (dose: 50.0 mg/kg/injection, schedule: Q01DX009 (ip), vehicle: distilled water + Tween-80) is reported as 134 % of control, the T/C [10] is reported as 135 % of control [5 of 6 alive] and the survivor count [10] is reported as 3 of 6. The survivor count (dose: 200.0 mg/kg/injection, schedule: Q01DX009 (ip), vehicle: distilled water + Tween-80) was 0 of 6.
